# Reference: patent publication US5063152A, “Synthetic peptidic substrate for determination of trypsin and α1” (Nitto Boseki Co., Ltd., priority 1985, dated 1991)
# At least one peptide structure holds a part that was inferred or is arguable (an end, a ring closure or a residue).
# Tests used:
# Conditions in all cases: 700 nm (coupled CHA); initial substrate concentration 2 mmol/l; 37° C., 5 minutes
# Plasmin (PL) = target: T1, Plasmin (PL) (Homo sapiens, UniProt P00747); test: substrate specificity test, reaction with plasmin; format: biochemical
# T1 construct: Plasmin Human; purchased Green Cross Corp
# Procedure: (§1) The synthetic peptides obtained in Examples 1 and 2 were subjected to a substrate specificity test by reacting with various enzymes under the following conditions.
# (§2) 1) substrate solution: 10 mmol/l (concentration)
# (§3) 2) buffer solution: tris-HCl buffer
# (§4) Concentrations of NaCl, and CaCl2 and pH (at 25° C.) were adjusted as shown in Table 2 depending on enzymes to be reacted: […]
# (§5) 4) Reaction stopper solution in the case of pNA: 10% acetic acid
# (§6) 5) Color producing reagent for CHA: sodium pentacyanoamine ferroate
# (§7) The buffer solution in an amount of 0.3 ml and 0.1 ml of an enzyme solution were placed in a test tube made of hard glass treated with silicon or a test tube made of a plastic (polystyrene) and preheated for 5 minutes in a constant temperature bath maintained at 37° C. Then, 0.1 ml of a substrate solution was added to the test tube and incubated at 37° C. for just 5 minutes. Subsequently, 2.0 ml of the reaction stopper solution (in the case of pNA) or the color producing reagent (in the case of CHA) was added to the reaction solution to terminate the enzymatic reaction. After allowing to stand at 37° C. for 10 minutes, absorbance (optical density) at 405 nm (in the case of pNA) or at 700 nm (in the case of coupled CHA) was measured. The initial substrate concentration was 2 mmol/l.
# Thrombin (TH) = target: T2, Thrombin (TH) (Bos taurus, UniProt P00735); test: substrate specificity test, reaction with thrombin; format: biochemical, Bovine
# T2 construct: Thrombin; purchased Mochida Pharmaceutical Co., Ltd
# Procedure: as §1, §2, §3, §4, §5, §6, §7
# Trypsin (Try) = target: T3, Trypsin (Try) (Bos taurus, UniProt P00760); test: substrate specificity test, reaction with trypsin; format: biochemical, Bovine
# T3 construct: purchased Worthington
# T3 sequence (P00760 24-246): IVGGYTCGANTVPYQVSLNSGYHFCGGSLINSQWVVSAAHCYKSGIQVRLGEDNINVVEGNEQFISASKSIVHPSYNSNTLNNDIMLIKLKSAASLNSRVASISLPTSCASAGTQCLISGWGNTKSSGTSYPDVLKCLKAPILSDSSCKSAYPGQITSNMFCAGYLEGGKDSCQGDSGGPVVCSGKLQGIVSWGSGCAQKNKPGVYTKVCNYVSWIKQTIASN
# Procedure: as §1, §2, §3, §4, §5, §6, §7
# Kallikrein (KL) = target: T4, Kallikrein (KL) (Sus scrofa, UniProt P00752); test: substrate specificity test, reaction with kallikrein; format: biochemical, Porcine
# T4 construct: purchased Sigma Chem. Co
# Procedure: as §1, §2, §3, §4, §5, §6, §7
# Factor Xa (FXa) = target: T5, Factor Xa (FXa) (Bos taurus, UniProt P00743); test: substrate specificity test, reaction with factor Xa; format: biochemical, Bovine
# T5 construct: Factor Xa; purchased Sigma Chem. Co
# Procedure: as §1, §2, §3, §4, §5, §6, §7
# Urokinase (UK) = target: T6, Urokinase (UK) (Homo sapiens, UniProt P00749); test: substrate specificity test, reaction with urokinase; format: biochemical
# T6 construct: purchased Mochida Pharmaceutical Co., Ltd
# Procedure: as §1, §2, §3, §4, §5, §6, §7
smiles,measurement,setting,value
"CC(C)C[C@H](NC(=O)[C@@H](C)N)C(=O)N[C@@H](CCCCN)C(=O)Nc1ccc(O)c(C(=O)O)c1 [PS-1181, H-D -Ala-Leu-Lys-CHA.2HCl]","measured optical density (absorbance), plasmin",Plasmin (PL),0.003
same,"measured optical density (absorbance), thrombin",Thrombin (TH),0.0
same,"measured optical density (absorbance), trypsin",Trypsin (Try),0.393
same,"measured optical density (absorbance), kallikrein",Kallikrein (KL),0.006
same,"measured optical density (absorbance), factor Xa",Factor Xa (FXa),0.008
same,"measured optical density (absorbance), urokinase",Urokinase (UK),0.003
